Among the data in paper PMC5421814, “A Sequence in the loop domain of hepatitis C virus E2 protein identified in silico as crucial for the selective binding to human CD81” (PLoS ONE, 2017) are binding values, retold here.

Experiment [1] addresses T1, human CD81 on Huh-7 cells (human (endogenous in Huh-7)) (UniProt P60033).
T1 sequence: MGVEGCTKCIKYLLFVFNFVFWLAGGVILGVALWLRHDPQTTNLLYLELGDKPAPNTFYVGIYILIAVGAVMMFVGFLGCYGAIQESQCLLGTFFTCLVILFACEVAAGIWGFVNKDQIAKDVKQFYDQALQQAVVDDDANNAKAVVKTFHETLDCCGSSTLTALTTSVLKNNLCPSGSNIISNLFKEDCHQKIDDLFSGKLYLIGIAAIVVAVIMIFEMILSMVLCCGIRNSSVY
Description: flow cytometry on cells; Huh-7 or PC-12 cells (1 x 10^6 cells/mL) in PBS with 5% BSA, treated with 2, 5, 10, 20, 30 and 40 μM fluorescent peptide for 30 min in the dark, washed twice; only the binder purified. On the technique in general: Flow cytometry measures light scatter and fluorescence of single cells or particles in a stream.

Experiment [2] has as its target T2, rat CD81 on PC-12 cells (rat (endogenous in PC-12)) (UniProt Q62745).
T2 sequence: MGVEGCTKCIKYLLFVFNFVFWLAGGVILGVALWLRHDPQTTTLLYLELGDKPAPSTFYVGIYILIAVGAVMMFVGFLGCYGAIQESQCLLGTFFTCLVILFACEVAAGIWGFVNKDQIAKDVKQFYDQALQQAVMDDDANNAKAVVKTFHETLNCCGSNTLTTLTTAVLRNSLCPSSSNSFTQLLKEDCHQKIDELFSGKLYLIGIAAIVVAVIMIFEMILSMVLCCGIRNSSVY
Described as above.

Experiment [3] addresses T1, human CD81 on Huh-7 cells (human (endogenous in Huh-7)). Briefly: flow cytometry on cells; competition: Huh-7 cells pretreated with nonfluorescent peptide (10, 20, 40 μM) in PBS with 5% BSA for 30 min, then FITC-labelled anti-human-CD81 monoclonal antibodies for 30 min; only the binder purified.

No constants are given. Whether binding was seen depends on the method and setting. Some results given as binding are weak or reduced against the parent protein; the word gives no strength.

Regarding RSGAPTYSWGANDTDVF (labelled with the fluorescent dye 5-carboxyfluorescein (position not given)) [fluorescent p_E2-site2], the figures for the binding entry in experiment [1] and in experiment [2] were “binds” and “no binding (tested: 40 μM)”, respectively.

B1: p_E2-site1 (peptide)
peptide: INSTALNCNESLNTGWLAGLFYQ
notes: hepatitis C virus envelope glycoprotein E2, residues 422-444 of the polyprotein; also called E2-site1 peptide; E2-s1; source: synthetic peptide, bought: GeneMark (GMbiolab Co., Ltd., Taiwan)
As for B1, the binding entry in experiment [3] is “binds”.
As to INSTALNCNESLNTGWLAGLFYQ (labelled with the fluorescent dye 5-carboxyfluorescein (position not given)) [fluorescent p_E2-site1], the binding result in experiment [1] is on record as “binds”; in experiment [2], “no binding (tested: 40 μM)”.

B2: p_E2-site2 (peptide)
peptide: RSGAPTYSWGANDTDVF
notes: hepatitis C virus envelope glycoprotein E2, residues 521-537 of the polyprotein; also called E2-site2 peptide; E2-s2; source: synthetic peptide, bought: GeneMark (GMbiolab Co., Ltd., Taiwan)
B2: the binding entry in experiment [3] is on record as “binds”.
